# Assay results reported in the supplement of paper PMC10849652.
# Chains of the proteins cited; added tags and fusions are not shown. Lines headed by an entry give the natural chain unless they say otherwise; changes in a name come on top.
# UniProt Q9H1Y0: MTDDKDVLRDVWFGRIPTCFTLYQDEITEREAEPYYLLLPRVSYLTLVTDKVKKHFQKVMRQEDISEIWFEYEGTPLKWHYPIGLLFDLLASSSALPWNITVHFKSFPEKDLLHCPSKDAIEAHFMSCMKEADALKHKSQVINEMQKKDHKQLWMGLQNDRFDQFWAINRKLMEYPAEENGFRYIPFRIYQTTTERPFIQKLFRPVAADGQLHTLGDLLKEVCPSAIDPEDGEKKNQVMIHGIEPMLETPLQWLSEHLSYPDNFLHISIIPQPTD
# UniProt P61769, whole entry, looked up: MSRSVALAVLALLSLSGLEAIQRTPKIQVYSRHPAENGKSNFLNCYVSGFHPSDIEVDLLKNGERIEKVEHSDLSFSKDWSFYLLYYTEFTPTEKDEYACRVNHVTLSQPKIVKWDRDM
# UniProt P36543, whole entry, looked up: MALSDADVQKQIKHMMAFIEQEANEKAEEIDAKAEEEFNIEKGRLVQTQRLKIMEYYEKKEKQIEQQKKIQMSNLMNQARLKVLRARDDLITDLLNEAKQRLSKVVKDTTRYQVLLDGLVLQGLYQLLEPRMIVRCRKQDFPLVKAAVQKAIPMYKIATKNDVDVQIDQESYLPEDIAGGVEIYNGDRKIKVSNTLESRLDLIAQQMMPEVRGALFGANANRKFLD
# UniProt Q9Y679: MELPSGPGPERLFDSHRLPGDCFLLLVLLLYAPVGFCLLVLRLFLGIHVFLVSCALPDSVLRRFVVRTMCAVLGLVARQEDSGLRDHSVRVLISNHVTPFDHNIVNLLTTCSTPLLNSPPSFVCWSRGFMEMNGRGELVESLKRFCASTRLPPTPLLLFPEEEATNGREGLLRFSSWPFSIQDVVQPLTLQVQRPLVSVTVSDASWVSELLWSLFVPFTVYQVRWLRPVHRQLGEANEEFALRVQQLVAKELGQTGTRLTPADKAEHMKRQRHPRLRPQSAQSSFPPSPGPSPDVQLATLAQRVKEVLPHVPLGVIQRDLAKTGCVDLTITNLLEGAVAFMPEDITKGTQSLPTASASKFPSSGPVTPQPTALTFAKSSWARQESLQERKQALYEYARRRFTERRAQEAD
# UniProt O94817, whole entry, looked up: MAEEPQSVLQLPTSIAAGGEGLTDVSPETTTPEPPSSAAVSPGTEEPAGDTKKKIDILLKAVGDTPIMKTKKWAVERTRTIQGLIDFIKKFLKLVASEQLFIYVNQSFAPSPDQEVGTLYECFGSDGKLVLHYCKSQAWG
# UniProt P25705: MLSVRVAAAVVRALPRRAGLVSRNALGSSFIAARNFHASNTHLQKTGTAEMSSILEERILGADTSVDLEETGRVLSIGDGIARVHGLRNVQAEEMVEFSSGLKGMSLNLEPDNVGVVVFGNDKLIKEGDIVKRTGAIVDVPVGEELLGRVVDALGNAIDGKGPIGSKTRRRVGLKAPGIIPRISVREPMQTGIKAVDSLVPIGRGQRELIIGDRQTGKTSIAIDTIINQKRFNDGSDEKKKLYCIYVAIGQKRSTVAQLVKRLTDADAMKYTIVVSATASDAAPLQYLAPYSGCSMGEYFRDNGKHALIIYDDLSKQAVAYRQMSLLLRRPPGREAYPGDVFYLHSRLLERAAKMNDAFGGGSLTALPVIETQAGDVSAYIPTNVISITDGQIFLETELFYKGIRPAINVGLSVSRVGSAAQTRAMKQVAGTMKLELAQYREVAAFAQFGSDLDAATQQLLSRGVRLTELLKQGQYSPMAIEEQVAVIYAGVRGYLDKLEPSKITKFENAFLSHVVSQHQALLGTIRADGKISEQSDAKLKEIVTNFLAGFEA
# UniProt Q9BSB4: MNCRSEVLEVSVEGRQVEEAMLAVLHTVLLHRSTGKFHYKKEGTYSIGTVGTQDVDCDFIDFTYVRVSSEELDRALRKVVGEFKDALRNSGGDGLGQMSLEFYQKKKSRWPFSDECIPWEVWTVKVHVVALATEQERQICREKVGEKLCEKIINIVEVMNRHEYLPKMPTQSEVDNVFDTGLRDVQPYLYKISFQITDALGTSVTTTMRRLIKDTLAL
# UniProt P98194: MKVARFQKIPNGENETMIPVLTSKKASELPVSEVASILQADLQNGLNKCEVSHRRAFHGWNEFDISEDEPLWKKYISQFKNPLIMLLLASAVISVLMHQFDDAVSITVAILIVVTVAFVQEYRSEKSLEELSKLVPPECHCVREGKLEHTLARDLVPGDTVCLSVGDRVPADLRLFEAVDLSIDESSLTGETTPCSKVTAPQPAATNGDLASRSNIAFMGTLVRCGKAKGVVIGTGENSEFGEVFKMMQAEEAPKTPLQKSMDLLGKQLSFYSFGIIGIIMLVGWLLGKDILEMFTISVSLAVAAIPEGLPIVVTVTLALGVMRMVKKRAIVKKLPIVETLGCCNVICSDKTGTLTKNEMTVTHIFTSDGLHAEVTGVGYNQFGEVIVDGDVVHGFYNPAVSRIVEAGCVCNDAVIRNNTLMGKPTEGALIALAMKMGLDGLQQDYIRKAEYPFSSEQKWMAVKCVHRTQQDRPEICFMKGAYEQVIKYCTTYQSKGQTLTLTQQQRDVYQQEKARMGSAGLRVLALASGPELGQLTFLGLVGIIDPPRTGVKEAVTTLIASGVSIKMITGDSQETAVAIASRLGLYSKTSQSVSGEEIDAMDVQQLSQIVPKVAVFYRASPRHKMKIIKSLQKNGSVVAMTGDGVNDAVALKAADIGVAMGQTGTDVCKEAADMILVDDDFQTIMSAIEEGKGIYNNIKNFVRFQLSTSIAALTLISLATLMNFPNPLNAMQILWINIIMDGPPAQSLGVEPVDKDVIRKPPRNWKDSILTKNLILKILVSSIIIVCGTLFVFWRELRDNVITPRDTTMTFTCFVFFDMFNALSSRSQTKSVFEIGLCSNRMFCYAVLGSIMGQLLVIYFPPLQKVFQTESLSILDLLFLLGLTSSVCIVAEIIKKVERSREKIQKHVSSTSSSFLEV
# UniProt P15336: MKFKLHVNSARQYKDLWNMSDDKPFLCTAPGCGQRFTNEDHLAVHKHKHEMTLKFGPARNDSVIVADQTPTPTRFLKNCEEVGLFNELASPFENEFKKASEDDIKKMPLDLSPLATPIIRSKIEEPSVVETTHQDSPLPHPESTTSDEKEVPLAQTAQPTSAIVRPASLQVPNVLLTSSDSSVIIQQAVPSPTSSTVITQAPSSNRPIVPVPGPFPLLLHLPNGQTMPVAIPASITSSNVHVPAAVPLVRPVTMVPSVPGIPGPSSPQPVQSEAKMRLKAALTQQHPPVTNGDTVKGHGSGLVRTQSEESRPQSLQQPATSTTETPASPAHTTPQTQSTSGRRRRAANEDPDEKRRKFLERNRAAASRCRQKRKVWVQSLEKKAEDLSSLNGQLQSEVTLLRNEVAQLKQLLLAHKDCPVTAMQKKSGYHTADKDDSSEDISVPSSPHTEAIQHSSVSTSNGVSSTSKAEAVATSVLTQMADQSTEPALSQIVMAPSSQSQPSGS
# UniProt Q2TAZ0: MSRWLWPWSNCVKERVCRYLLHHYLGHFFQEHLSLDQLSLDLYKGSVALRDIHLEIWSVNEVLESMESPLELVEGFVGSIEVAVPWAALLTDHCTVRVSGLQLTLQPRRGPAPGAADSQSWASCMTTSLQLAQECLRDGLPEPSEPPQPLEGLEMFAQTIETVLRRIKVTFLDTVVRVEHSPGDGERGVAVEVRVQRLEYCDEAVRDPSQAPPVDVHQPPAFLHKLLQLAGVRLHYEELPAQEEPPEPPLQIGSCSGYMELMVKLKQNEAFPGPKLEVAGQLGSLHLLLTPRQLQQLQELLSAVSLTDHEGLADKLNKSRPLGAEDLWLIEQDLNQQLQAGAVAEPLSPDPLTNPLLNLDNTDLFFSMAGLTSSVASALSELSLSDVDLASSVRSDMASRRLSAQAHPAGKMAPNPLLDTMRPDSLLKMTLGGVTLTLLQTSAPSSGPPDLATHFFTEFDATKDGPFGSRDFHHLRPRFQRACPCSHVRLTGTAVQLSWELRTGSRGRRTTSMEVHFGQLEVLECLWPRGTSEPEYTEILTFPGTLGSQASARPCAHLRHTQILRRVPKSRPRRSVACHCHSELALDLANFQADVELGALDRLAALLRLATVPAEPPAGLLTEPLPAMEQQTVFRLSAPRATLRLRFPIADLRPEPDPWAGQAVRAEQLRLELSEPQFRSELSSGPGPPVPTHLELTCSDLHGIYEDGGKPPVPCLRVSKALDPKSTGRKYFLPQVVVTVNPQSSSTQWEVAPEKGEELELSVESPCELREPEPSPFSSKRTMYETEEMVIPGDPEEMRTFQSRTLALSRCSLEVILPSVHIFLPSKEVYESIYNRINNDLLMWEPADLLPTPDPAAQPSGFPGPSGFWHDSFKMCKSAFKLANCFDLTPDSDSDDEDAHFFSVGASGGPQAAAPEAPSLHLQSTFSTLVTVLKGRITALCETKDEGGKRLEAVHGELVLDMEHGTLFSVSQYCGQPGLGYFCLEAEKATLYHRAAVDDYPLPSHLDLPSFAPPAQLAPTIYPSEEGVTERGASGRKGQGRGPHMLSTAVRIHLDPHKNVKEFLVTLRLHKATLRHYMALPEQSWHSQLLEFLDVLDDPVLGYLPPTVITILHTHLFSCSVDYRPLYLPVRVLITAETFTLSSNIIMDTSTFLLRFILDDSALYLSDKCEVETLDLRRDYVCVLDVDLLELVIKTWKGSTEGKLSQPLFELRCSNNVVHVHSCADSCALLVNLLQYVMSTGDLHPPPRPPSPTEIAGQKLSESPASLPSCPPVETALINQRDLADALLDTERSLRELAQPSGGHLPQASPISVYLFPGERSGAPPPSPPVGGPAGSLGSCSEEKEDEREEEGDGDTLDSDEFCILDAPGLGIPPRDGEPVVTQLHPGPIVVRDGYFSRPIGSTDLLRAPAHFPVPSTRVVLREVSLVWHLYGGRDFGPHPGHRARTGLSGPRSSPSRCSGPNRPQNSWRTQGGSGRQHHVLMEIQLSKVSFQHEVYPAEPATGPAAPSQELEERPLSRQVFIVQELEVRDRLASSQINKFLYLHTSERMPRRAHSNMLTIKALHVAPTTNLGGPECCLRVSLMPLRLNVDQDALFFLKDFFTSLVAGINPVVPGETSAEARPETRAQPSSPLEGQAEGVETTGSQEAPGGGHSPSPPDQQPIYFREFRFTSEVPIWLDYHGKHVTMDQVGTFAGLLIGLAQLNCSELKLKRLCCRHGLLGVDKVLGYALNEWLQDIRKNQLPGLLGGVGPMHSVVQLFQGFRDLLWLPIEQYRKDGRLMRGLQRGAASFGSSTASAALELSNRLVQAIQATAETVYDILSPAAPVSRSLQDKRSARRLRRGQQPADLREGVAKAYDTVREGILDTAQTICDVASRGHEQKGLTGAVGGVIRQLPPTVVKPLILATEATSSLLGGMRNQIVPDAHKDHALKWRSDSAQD
# UniProt P06576, whole entry, looked up: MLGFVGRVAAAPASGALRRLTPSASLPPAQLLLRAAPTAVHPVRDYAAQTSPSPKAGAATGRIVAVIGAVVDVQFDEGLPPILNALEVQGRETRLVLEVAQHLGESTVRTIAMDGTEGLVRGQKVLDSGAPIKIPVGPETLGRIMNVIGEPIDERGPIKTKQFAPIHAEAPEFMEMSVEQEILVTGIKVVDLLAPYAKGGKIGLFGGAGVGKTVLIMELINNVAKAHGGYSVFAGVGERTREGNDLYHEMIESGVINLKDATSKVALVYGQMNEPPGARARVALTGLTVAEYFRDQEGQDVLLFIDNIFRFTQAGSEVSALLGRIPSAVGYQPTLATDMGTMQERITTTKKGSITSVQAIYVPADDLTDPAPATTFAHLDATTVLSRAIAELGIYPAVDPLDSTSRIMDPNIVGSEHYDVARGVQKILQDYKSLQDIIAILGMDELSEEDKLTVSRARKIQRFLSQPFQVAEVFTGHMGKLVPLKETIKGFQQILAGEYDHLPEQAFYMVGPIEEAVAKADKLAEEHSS
# UniProt O75143: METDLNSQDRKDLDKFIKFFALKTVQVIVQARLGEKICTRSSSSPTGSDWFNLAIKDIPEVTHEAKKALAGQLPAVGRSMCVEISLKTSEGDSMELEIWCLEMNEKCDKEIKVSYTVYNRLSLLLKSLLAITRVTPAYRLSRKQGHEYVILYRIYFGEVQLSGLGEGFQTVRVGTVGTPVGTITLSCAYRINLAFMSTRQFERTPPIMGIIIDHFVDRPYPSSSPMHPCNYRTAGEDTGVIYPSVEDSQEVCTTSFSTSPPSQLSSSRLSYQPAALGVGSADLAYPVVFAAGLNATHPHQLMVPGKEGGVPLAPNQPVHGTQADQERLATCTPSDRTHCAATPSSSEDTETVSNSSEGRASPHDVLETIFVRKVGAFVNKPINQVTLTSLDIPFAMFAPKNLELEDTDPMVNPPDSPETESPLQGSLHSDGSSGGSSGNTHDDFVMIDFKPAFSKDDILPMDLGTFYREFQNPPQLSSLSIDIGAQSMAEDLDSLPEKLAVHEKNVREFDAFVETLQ
# UniProt Q9Y5K8, whole entry, looked up: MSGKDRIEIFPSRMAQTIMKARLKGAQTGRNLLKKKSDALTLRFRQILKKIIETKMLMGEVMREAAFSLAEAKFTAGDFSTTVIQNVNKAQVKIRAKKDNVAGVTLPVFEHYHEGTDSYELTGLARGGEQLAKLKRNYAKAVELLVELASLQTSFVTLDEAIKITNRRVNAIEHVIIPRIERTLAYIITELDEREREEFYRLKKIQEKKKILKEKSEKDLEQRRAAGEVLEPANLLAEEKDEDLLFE
# This is one part of the list.
# Columns and labels:
# Assay in all cases: log2 fold change, soluble protein after heating vs DMSO (PISA); higher = thermal stabilisation; K562 lysate, 10 uM; active = over 0.2 and 3.5 SD of the protein, either way, in both replicates (recomputed)
# lapatinib = compound: CS(=O)(=O)CCNCc1ccc(-c2ccc3ncnc(Nc4ccc(OCc5cccc(F)c5)c(Cl)c4)c3c2)o1 [lapatinib]
# How it was run: (§1)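 K562 pellets were dounce-homogenised in PBS pH 7.4 with 1 mM MgCl2, and the crude extract at 1 mg/mL protein was treated with 10 μM compound for 30 min. Aliquots were heated for 3 min across 48°C-58°C, pooled, and brought to 0.5% NP-40 at 4°C; soluble protein was the supernatant after 21,000xg for 90 min. Soluble protein was quantified by TMTpro 16plex LC-MS/MS with channel sums equalised, and reported as log2 fold change in thermal stability against DMSO controls, with values from duplicates.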
# pictilisib = compound: CS(=O)(=O)N1CCN(Cc2cc3nc(-c4cccc5[nH]ncc45)nc(N4CCOCC4)c3s2)CC1 [pictilisib]
# How it was run: as §1
# crizotinib = compound: C[C@@H](Oc1cc(-c2cnn(C3CCNCC3)c2)cnc1N)c1c(Cl)ccc(F)c1Cl [crizotinib]
# How it was run: as §1
# [1] = compound: C[C@H](C1=CC=C(C=C1)C(=O)NC2=C3C=CNC3=NC=C2)N
# How it was run: as §1
# duvelisib = compound: C[C@H](Nc1ncnc2nc[nH]c12)c1cc2cccc(Cl)c2c(=O)n1-c1ccccc1 [duvelisib]
# How it was run: as §1
# gandotinib = compound: Cc1cc(Nc2cc(CN3CCOCC3)c3nc(C)c(Cc4ccc(Cl)cc4F)n3n2)n[nH]1 [gandotinib]
# How it was run: as §1
# tozasertib = compound: Cc1cc(Nc2cc(N3CCN(C)CC3)nc(Sc3ccc(NC(=O)C4CC4)cc3)n2)n[nH]1 [tozasertib]
# How it was run: as §1
# doramapimod = compound: Cc1ccc(-n2nc(C(C)(C)C)cc2NC(=O)Nc2ccc(OCCN3CCOCC3)c3ccccc23)cc1 [doramapimod]
# How it was run: as §1
# bafetinib = compound: Cc1ccc(NC(=O)c2ccc(CN3CC[C@H](N(C)C)C3)c(C(F)(F)F)c2)cc1Nc1nccc(-c2cncnc2)n1 [bafetinib]
# How it was run: as §1
# [2] = compound: Cc1cccc(CC(=O)N2CCc3c2ccc(-c2cn(C)c4ncnc(N)c24)c3F)n1
# How it was run: as §1
# nilotinib = compound: Cc1cn(-c2cc(NC(=O)c3ccc(C)c(Nc4nccc(-c5cccnc5)n4)c3)cc(C(F)(F)F)c2)cn1 [nilotinib]
# How it was run: as §1
# [3] = compound: Cc1nc(Nc2n[nH]c3c2CN(C(=O)N[C@H](CN(C)C)c2ccccc2)C3(C)C)c2sccc2n1
# How it was run: as §1
# dasatinib = compound: Cc1nc(Nc2ncc(C(=O)Nc3c(C)cccc3Cl)s2)cc(N2CCN(CCO)CC2)n1 [dasatinib]
# How it was run: as §1
# [4] = compound: Cc1ncc(-c2ccnc(Nc3ccc(S(C)(=O)=O)cc3)n2)n1C(C)C
# How it was run: as §1
# [5] = compound: Cn1cc(-c2ccc3c(c2)CCN3C(=O)Cc2cccc(C(F)(F)F)c2)c2c(N)ncnc21
# How it was run: as §1
# quisinostat = compound: Cn1cc(CNCC2CCN(c3ncc(C(=O)NO)cn3)CC2)c2ccccc21 [quisinostat]
# How it was run: as §1
# tipifarnib = compound: Cn1cncc1[C@@](N)(c1ccc(Cl)cc1)c1ccc2c(c1)c(-c1cccc(Cl)c1)cc(=O)n2C [tipifarnib]
# How it was run: as §1
# [6] = compound: NC(=O)Nc1cc(-c2cccc(F)c2)sc1C(=O)N[C@H]1CCCNC1
# How it was run: as §1
# [7] = compound: NC(=O)c1cnc(N[C@@H]2CCCC[C@@H]2N)nc1Nc1cccc(-n2nccn2)c1
# How it was run: as §1
# [8] = compound: NC1(c2ccc(-c3nc4ccn5c(=O)[nH]nc5c4cc3-c3ccccc3)cc2)CCC1
# How it was run: as §1
Target,log2 fold change (lapatinib),log2 fold change (pictilisib),log2 fold change (crizotinib),log2 fold change [1],log2 fold change (duvelisib),log2 fold change (gandotinib),log2 fold change (tozasertib),log2 fold change (doramapimod),log2 fold change (bafetinib),log2 fold change [2],log2 fold change (nilotinib),log2 fold change [3],log2 fold change (dasatinib),log2 fold change [4],log2 fold change [5],log2 fold change (quisinostat),log2 fold change (tipifarnib),log2 fold change [6],log2 fold change [7],log2 fold change [8]
ATG5 (UniProt Q9H1Y0),inactive: 0.009,inactive: 0.025,inactive: -0.006,inactive: -0.033,inactive: 0.056,inactive: 0.001,inactive: -0.008,inactive: 0.005,inactive: -0.009,inactive: -0.02,inactive: 0.011,inactive: -0.024,inactive: -0.011,inactive: -0.063,inactive: 0,inactive: -0.009,inactive: -0.013,inactive: -0.01,inactive: 0.006,inactive: 0.017
B2M (UniProt P61769),inactive: -0.045,inactive: -0.018,inactive: 0,inactive: -0.012,inactive: 0.057,inactive: 0.031,inactive: -0.013,inactive: 0.009,inactive: -0.042,inactive: 0.054,inactive: 0.021,inactive: 0.033,inactive: 0.166,inactive: 0.019,inactive: -0.121,inactive: -0.072,inactive: 0.04,inactive: -0.005,inactive: -0.033,inactive: 0.012
ATP6V1E1 (UniProt P36543),inactive: -0.008,inactive: -0.004,inactive: 0.023,inactive: -0.213,inactive: 0.013,inactive: 0.054,inactive: -0.033,inactive: -0.027,inactive: 0.058,inactive: 0.102,inactive: 0.053,inactive: -0.016,inactive: -0.018,inactive: -0.008,inactive: -0.026,inactive: 0.009,inactive: -0.021,inactive: 0.016,inactive: -0.007,inactive: -0.012
AUP1 (UniProt Q9Y679),inactive: 0.106,inactive: 0.037,inactive: -0.094,inactive: -0.023,inactive: 0.07,inactive: -0.156,inactive: -0.032,inactive: -0.117,inactive: -0.073,inactive: 0.124,inactive: -0.007,inactive: -0.019,inactive: -0.015,inactive: 0.067,inactive: 0.038,inactive: 0.245,inactive: 0.048,inactive: -0.024,inactive: -0.07,inactive: 0
AZGP1 (UniProt P25311),inactive: 0.569,inactive: 0.604,inactive: 0.22,inactive: 0.494,inactive: -0.281,inactive: 0.118,inactive: 0.319,inactive: -0.044,inactive: 0.17,inactive: -0.047,inactive: 0.589,inactive: -0.024,inactive: 0.069,inactive: 0.281,inactive: 0.734,inactive: -0.09,inactive: -0.197,inactive: 0.064,inactive: 0.13,inactive: -0.021
ATG12 (UniProt O94817),inactive: -0.01,inactive: -0.007,inactive: -0.061,inactive: -0.118,inactive: -0.008,inactive: 0.079,inactive: 0,inactive: -0.001,inactive: -0.03,inactive: 0.099,inactive: 0.034,inactive: -0.057,inactive: -0.047,inactive: -0.004,inactive: 0.011,inactive: -0.078,inactive: -0.028,inactive: 0.03,inactive: -0.004,inactive: 0.004
ATP5F1A (UniProt P25705),inactive: -0.025,inactive: -0.003,inactive: 0.019,inactive: 0.03,inactive: 0.008,inactive: -0.001,inactive: 0.007,inactive: -0.003,inactive: 0.014,inactive: -0.027,inactive: -0.002,inactive: -0.017,inactive: -0.032,inactive: -0.016,inactive: 0.014,inactive: -0.02,inactive: 0.002,inactive: -0.004,inactive: -0.004,inactive: -0.002
ATG101 (UniProt Q9BSB4),inactive: 0.036,inactive: -0.058,inactive: 0.069,inactive: 0,inactive: -0.028,inactive: 0.145,inactive: 0.044,inactive: 0.159,inactive: -0.086,inactive: 0.013,inactive: 0.048,inactive: -0.005,inactive: 0.044,inactive: 0.001,inactive: 0.023,inactive: 0.056,inactive: -0.058,inactive: -0.03,inactive: 0.007,inactive: -0.013
ATP2C1 isoform 7 (UniProt P98194),inactive: -0.049,inactive: -0.032,inactive: -0.012,inactive: -0.083,inactive: -0.016,inactive: -0.025,inactive: -0.142,inactive: -0.055,inactive: -0.11,inactive: 0.044,inactive: 0.044,inactive: -0.065,inactive: -0.205,inactive: -0.122,inactive: 0.044,inactive: -0.172,inactive: 0.025,inactive: 0.076,inactive: -0.073,inactive: -0.04
ASMTL (UniProt O95671),inactive: 0.009,inactive: -0.018,inactive: 0,inactive: -0.006,inactive: 0.005,inactive: -0.02,inactive: -0.017,inactive: -0.005,inactive: -0.069,inactive: 0.099,inactive: -0.066,inactive: -0.012,inactive: 0.025,inactive: -0.071,inactive: -0.02,inactive: 0.006,inactive: -0.079,inactive: 0.017,inactive: 0.011,inactive: -0.035
ATF2 (UniProt P15336),inactive: -0.02,inactive: -0.007,inactive: -0.007,inactive: 0.164,inactive: -0.019,inactive: -0.057,inactive: 0.01,inactive: 0.016,inactive: 0.087,inactive: -0.059,inactive: -0.091,inactive: 0.107,inactive: 0.056,inactive: 0.225,inactive: 0.026,inactive: 0.013,inactive: 0.02,inactive: -0.006,inactive: -0.07,inactive: 0.022
ATG2A isoform 3 (UniProt Q2TAZ0),inactive: -0.029,inactive: 0.057,inactive: -0.087,inactive: -0.017,inactive: 0.005,inactive: -0.123,inactive: -0.012,inactive: -0.003,inactive: -0.09,inactive: 0.203,inactive: 0.088,inactive: -0.015,inactive: -0.054,inactive: 0.019,inactive: 0.042,inactive: -0.047,inactive: -0.113,inactive: 0.017,inactive: 0.022,inactive: -0.061
ATP5MC2 isoform 2 (UniProt Q06055),inactive: 0.022,inactive: 0.084,inactive: 0.001,inactive: -0.157,inactive: 0.004,inactive: 0.079,inactive: 0,inactive: 0.059,inactive: -0.015,inactive: 0.084,inactive: -0.037,inactive: 0.032,inactive: 0.028,inactive: 0.033,inactive: -0.018,inactive: -0.1,inactive: -0.032,inactive: 0.033,inactive: -0.127,inactive: -0.07
ATP5F1B (UniProt P06576),inactive: -0.022,inactive: -0.006,inactive: 0.025,inactive: -0.005,inactive: 0.008,inactive: 0.015,inactive: -0.021,inactive: -0.018,inactive: 0.02,inactive: -0.008,inactive: 0.006,inactive: -0.018,inactive: -0.004,inactive: -0.01,inactive: -0.017,inactive: 0.014,inactive: -0.003,inactive: -0.002,inactive: 0.001,inactive: 0.017
ATG13 isoform 2 (UniProt O75143),inactive: 0.018,inactive: 0.014,inactive: -0.022,active: -0.271,inactive: 0.016,inactive: 0.172,inactive: 0.05,inactive: 0.049,inactive: -0.123,inactive: 0.137,inactive: -0.034,inactive: 0.036,inactive: 0.002,inactive: 0.028,inactive: -0.069,inactive: -0.052,inactive: -0.018,inactive: 0.059,inactive: 0,inactive: -0.014
ATP6V1D (UniProt Q9Y5K8),inactive: 0.002,inactive: 0.01,inactive: 0.052,inactive: 0.117,inactive: 0.009,inactive: 0,inactive: -0.002,inactive: -0.026,inactive: -0.013,inactive: -0.047,inactive: -0.014,inactive: 0.028,inactive: 0.046,inactive: 0.004,inactive: 0.01,inactive: 0.072,inactive: 0.002,inactive: -0.01,inactive: -0.014,inactive: 0.01

# Quoted at random: 2 entries already listed, in no set order.
Target,log2 fold change (lapatinib),log2 fold change (pictilisib),log2 fold change (crizotinib),log2 fold change [1],log2 fold change (duvelisib),log2 fold change (gandotinib),log2 fold change (tozasertib),log2 fold change (doramapimod),log2 fold change (bafetinib),log2 fold change [2],log2 fold change (nilotinib),log2 fold change [3],log2 fold change (dasatinib),log2 fold change [4],log2 fold change [5],log2 fold change (quisinostat),log2 fold change (tipifarnib),log2 fold change [6],log2 fold change [7],log2 fold change [8]
ATP6V1E1 (UniProt P36543),inactive: -0.008,inactive: -0.004,inactive: 0.023,inactive: -0.213,inactive: 0.013,inactive: 0.054,inactive: -0.033,inactive: -0.027,inactive: 0.058,inactive: 0.102,inactive: 0.053,inactive: -0.016,inactive: -0.018,inactive: -0.008,inactive: -0.026,inactive: 0.009,inactive: -0.021,inactive: 0.016,inactive: -0.007,inactive: -0.012
AUP1 (UniProt Q9Y679),inactive: 0.106,inactive: 0.037,inactive: -0.094,inactive: -0.023,inactive: 0.07,inactive: -0.156,inactive: -0.032,inactive: -0.117,inactive: -0.073,inactive: 0.124,inactive: -0.007,inactive: -0.019,inactive: -0.015,inactive: 0.067,inactive: 0.038,inactive: 0.245,inactive: 0.048,inactive: -0.024,inactive: -0.07,inactive: 0
